Compound in this experiment: Cc1cc(ccc1-c1ccccc1)C(=O)N1CCCN(CC1)C(=O)CCl [compound 10]
The experiment in a line: probe-labelled cysteine peptide fold change vs DMSO (competition) (log2 fold change); higher = less target engagement (more negative = stronger competition). The settings on record: THP-1, incubation time: 4 h.

Chains of the proteins cited; added tags and fusions are not shown. Lines headed by an entry give the natural chain unless they say otherwise; changes in a name come on top.
UniProt Q6ZXV5: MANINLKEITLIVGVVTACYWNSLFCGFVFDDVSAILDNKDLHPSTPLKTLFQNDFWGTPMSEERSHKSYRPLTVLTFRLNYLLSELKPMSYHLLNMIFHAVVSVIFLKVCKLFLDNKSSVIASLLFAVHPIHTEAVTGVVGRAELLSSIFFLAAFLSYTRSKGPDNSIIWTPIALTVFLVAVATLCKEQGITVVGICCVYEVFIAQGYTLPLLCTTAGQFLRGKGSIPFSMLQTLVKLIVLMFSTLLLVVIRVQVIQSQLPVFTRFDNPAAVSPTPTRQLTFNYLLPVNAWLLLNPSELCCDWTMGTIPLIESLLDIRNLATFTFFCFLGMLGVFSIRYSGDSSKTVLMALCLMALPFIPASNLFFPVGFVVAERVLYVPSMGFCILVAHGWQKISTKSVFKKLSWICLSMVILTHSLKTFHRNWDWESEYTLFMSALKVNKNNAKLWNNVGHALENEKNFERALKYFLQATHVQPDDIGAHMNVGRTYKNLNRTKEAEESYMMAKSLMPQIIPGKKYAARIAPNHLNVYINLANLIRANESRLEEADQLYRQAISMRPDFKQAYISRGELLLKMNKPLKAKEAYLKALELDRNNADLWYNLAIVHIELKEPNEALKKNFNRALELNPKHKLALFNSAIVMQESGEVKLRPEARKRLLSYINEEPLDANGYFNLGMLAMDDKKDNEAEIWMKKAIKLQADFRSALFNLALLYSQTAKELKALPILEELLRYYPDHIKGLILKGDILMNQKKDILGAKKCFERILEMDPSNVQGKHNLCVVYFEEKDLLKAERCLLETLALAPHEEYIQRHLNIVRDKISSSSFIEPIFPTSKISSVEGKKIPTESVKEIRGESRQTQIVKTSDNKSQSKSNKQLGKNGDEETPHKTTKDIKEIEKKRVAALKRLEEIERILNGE
UniProt P11387: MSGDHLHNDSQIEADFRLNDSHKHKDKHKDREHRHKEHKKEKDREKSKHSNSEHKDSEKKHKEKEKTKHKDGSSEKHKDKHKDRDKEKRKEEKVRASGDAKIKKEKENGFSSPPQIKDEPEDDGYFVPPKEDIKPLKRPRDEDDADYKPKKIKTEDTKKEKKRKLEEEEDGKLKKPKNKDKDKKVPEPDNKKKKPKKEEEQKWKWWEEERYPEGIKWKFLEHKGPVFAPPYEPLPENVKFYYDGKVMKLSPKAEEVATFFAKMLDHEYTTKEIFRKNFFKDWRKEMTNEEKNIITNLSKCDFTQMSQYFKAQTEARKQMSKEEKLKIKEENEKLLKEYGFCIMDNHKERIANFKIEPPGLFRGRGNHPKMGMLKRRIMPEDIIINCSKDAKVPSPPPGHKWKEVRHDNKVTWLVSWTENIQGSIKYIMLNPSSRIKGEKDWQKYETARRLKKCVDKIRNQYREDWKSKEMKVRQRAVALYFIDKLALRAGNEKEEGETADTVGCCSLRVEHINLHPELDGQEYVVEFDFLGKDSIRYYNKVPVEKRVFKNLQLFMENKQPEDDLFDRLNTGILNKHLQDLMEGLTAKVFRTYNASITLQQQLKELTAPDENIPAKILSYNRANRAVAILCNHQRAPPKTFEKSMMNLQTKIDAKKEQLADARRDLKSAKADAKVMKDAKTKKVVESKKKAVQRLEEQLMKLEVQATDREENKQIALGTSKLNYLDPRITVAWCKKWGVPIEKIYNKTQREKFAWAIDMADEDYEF
UniProt Q9NQ34: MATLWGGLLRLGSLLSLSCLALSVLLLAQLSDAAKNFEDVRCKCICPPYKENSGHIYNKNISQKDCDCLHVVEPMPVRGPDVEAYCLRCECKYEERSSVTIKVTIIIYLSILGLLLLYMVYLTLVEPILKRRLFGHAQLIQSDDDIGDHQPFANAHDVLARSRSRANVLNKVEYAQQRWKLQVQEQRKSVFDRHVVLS
UniProt Q96HA7: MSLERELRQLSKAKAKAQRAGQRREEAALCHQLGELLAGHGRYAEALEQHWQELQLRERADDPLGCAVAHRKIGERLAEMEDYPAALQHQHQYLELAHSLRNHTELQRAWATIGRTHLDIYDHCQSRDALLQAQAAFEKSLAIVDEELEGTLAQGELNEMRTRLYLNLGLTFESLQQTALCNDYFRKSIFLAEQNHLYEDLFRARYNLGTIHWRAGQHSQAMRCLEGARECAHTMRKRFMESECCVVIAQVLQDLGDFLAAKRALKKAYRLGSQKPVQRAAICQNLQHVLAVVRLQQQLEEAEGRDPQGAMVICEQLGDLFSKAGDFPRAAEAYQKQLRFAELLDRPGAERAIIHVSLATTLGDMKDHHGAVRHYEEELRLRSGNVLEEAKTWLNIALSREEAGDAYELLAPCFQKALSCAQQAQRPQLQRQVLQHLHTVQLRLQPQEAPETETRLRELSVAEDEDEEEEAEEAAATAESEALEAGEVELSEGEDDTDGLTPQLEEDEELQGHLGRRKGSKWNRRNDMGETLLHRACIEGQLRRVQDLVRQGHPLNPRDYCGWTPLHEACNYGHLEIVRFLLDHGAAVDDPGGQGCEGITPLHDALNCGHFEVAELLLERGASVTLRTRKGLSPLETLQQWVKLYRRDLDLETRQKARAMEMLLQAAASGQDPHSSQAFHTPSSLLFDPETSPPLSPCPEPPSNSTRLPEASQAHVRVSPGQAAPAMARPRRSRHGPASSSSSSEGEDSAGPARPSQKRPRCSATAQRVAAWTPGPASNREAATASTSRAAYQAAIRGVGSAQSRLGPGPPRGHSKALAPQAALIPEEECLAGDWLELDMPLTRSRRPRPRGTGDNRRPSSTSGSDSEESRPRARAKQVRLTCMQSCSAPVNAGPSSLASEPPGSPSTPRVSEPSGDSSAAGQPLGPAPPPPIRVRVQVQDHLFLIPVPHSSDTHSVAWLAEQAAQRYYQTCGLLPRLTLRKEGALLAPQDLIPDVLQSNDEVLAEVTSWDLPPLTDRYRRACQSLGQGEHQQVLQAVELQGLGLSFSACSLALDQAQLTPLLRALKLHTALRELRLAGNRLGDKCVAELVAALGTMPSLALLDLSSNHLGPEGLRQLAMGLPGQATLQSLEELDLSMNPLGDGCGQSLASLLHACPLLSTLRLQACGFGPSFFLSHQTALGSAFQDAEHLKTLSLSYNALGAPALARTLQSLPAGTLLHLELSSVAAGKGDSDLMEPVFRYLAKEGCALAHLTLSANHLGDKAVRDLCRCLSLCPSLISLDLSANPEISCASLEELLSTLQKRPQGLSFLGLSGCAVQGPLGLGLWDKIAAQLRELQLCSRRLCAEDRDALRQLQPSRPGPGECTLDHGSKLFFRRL
UniProt P11388: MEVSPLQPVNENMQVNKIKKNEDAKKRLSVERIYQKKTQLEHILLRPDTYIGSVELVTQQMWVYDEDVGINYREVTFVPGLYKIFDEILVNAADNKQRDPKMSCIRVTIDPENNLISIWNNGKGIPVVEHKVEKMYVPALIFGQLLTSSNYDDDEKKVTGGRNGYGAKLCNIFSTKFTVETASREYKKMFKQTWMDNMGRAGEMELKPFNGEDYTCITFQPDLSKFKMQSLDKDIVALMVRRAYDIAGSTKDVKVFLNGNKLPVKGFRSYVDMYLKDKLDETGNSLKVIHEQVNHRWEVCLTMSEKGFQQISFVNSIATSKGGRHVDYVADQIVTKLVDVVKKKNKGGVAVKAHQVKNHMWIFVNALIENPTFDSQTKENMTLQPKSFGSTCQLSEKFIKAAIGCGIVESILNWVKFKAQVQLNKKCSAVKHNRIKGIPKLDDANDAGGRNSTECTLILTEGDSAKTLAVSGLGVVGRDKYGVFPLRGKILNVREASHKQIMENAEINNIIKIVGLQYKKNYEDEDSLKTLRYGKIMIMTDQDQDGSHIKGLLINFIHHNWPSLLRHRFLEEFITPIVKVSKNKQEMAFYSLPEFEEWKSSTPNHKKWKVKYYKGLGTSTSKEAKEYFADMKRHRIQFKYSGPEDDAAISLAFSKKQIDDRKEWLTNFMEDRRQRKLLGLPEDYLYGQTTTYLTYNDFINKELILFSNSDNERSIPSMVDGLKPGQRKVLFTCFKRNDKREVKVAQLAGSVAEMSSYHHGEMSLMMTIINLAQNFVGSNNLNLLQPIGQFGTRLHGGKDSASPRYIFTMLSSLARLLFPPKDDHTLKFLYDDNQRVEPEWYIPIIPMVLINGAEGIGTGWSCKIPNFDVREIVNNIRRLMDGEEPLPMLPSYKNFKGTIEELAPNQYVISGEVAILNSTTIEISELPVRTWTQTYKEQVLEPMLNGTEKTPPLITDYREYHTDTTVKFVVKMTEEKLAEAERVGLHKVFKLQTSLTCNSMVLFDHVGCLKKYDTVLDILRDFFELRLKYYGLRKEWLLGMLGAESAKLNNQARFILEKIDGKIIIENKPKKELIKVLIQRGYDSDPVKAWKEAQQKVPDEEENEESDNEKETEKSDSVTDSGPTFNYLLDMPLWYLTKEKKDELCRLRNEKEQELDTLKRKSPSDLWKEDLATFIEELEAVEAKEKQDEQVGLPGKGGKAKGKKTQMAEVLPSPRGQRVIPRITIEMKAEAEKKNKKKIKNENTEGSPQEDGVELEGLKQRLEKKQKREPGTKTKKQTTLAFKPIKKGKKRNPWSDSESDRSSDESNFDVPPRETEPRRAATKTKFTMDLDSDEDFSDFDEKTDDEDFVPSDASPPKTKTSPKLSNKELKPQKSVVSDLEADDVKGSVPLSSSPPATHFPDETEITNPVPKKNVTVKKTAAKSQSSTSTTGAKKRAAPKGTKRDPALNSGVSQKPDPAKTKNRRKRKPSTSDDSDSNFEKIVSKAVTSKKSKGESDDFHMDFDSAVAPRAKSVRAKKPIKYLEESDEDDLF
UniProt O95985: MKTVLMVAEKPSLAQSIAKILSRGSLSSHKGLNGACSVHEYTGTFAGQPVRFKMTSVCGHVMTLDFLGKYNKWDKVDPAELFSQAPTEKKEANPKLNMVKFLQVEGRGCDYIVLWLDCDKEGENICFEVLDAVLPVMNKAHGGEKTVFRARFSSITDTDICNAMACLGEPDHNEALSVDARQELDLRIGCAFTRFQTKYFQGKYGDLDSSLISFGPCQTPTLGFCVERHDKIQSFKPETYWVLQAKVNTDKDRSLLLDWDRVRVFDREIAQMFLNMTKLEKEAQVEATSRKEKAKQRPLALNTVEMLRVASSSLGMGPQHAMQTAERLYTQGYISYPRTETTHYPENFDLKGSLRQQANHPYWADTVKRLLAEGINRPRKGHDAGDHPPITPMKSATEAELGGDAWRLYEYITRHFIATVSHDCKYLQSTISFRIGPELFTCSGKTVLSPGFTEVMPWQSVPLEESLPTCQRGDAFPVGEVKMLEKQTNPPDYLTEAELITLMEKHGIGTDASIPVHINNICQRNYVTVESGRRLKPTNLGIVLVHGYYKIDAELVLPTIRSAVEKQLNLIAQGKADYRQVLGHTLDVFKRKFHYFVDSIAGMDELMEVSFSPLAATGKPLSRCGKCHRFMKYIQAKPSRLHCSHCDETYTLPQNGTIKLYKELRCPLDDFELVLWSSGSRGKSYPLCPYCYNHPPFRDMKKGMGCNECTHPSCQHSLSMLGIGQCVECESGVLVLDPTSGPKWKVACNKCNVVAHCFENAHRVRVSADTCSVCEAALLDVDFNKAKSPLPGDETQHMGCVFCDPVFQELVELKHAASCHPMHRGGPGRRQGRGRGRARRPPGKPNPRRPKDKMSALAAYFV
UniProt Q92973: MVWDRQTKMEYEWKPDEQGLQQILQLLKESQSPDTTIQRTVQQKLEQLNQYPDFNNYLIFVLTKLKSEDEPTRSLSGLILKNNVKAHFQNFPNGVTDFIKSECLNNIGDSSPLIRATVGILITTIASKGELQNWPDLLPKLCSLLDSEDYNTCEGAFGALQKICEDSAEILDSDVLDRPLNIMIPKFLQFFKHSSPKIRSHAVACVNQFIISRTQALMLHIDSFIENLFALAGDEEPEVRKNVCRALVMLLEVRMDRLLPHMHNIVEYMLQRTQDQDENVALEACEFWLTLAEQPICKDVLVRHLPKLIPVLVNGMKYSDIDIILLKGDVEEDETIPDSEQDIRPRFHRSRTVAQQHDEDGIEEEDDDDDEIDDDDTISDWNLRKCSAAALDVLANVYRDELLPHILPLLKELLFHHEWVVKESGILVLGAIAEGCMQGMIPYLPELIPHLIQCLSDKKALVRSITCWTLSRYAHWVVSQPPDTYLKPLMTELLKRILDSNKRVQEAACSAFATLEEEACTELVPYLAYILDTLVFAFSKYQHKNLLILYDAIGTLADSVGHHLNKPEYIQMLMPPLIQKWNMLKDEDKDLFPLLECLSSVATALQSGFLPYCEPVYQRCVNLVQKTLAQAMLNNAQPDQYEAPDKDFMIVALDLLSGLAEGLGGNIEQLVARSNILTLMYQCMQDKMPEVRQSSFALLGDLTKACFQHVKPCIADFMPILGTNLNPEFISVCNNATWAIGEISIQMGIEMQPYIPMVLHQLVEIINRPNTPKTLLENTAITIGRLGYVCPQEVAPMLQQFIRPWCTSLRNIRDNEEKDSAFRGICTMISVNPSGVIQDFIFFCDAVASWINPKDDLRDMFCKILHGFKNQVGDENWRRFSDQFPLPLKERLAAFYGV

The other results are listed elsewhere or left out.
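Also: competitive profiling in live THP-1 cells: cysteine peptides tagged with an iodoacetamide desthiobiotin (IA-DTB) probe, intensity after compound treatment relative to DMSO-treated cells.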

For the target “TNRC18_O15417_2204_GNRPHIYCLEQLLQEAIIDVRPASTR (UniProt O15417)”, the “probe-labelled cysteine peptide fold change” value was 0.0315 (10 µM) and -0.0731 (50 µM).
Taken in the same sequence, the figures for “TOR3A_Q9H497_193_DGLMSDCVR (UniProt Q9H497)” were -0.16 and 0.174.
Taken in the same sequence, the figures for “TMA16_Q96EY4_162_KICANDAIPK (UniProt Q96EY4)” were -0.041 and -0.333.
For “TOMM34_Q15785_236_ALCYLVLK (UniProt Q15785)”, the “probe-labelled cysteine peptide fold change” value by setting is: (10 µM) 0.293; (50 µM) 0.0603.
Turning to “TLN1_Q9Y490_243_ACEFAGFQCQIQFGPHNEQK (UniProt Q9Y490)”, the “probe-labelled cysteine peptide fold change” value reads like this: (10 µM) 0.0189; (50 µM) 0.0445.
With “TMTC3_Q6ZXV5_794_CLLETLALAPHEEYIQR (UniProt Q6ZXV5)”, the “probe-labelled cysteine peptide fold change” value was -0.104 (10 µM) and 0.204 (50 µM).
In the case of “TOP1_P11387_300_CDFTQMSQYFK (UniProt P11387)”, the “probe-labelled cysteine peptide fold change” value by setting is: (10 µM) 0.0952; (50 µM) 0.0679.
“TPI1_P60174_164_VAHALAEGLGVIACIGEK (UniProt P60174)”: the “probe-labelled cysteine peptide fold change” value turned out to be 0.0839 (10 µM) and 0.00853 (50 µM).
For “TMEM248_Q9NWD8_305_QSNPEFCPEK (UniProt Q9NWD8)” the same measures were -0.205 and -0.534.
Taken in the same sequence, the figures for “TMEM9B_Q9NQ34_68_DCDCLHVVEPMPVRGPDVEAYCLR (UniProt Q9NQ34)” were 0.0635 and 0.101.
For “TMEM39A_Q9NV64_276_NEVECLK (UniProt Q9NV64)” the same measures were 0.148 and 0.339.
With “TNPO3_Q9Y5L0_908_QVTSAEECK (UniProt Q9Y5L0)”, the “probe-labelled cysteine peptide fold change” value reads like this: (10 µM) 0.012; (50 µM) 0.155.
Take “TMEM106B_Q9NUM4_253_YQYVDCGR (UniProt Q9NUM4)”: the “probe-labelled cysteine peptide fold change” value reads like this: (10 µM) -0.297; (50 µM) 0.0672.
Consider “TMEM104_Q8NE00_455_DTQLAFGCGVSNK (UniProt Q8NE00)”, for which the “probe-labelled cysteine peptide fold change” value runs as follows: (10 µM) -0.127; (50 µM) -0.346.
As to “TOP2B_Q02880_271_RAYDLAGSCR (UniProt Q02880)”, the “probe-labelled cysteine peptide fold change” value by setting is: (10 µM) 0.0555; (50 µM) -0.0764.
In the case of “TONSL_Q96HA7_124_THLDIYDHCQSR (UniProt Q96HA7)”, the “probe-labelled cysteine peptide fold change” value runs as follows: (10 µM) 0.0757; (50 µM) -0.623.
“TMCO6_Q96DC7_57_NDAPEEAGEGCVAAILGETEVQQFLR (UniProt Q96DC7)”: the “probe-labelled cysteine peptide fold change” value (10 µM) is -0.114 and the “probe-labelled cysteine peptide fold change” value (50 µM) is -0.233.
In the case of “TPM3_P06753-2_170_CLSAAEEK (UniProt P06753)”, the “probe-labelled cysteine peptide fold change” value is, setting by setting: (10 µM) -0.0157; (50 µM) -0.233.
With “TOR2A_Q5JU69_43_CTLGAFCECDFRPDLPGLECDLAQHLAGQHLAK (UniProt Q5JU69)”, the “probe-labelled cysteine peptide fold change” value (10 µM) came out at 0.0995 and the “probe-labelled cysteine peptide fold change” value (50 µM) was 0.358.
On to “TOP2A_P11388_392_SFGSTCQLSEK (UniProt P11388)”, for which the “probe-labelled cysteine peptide fold change” value reads like this: (10 µM) -0.0489; (50 µM) -0.0273.
Turning to “TOR1AIP1_Q5JTV8_496_YCDHENAAFK (UniProt Q5JTV8)”, the “probe-labelled cysteine peptide fold change” value by setting is: (10 µM) 0.126; (50 µM) 0.19.
As for “TOP3B_O95985_522_HGIGTDASIPVHINNICQR (UniProt O95985)”, the “probe-labelled cysteine peptide fold change” value is, setting by setting: (10 µM) 0.214; (50 µM) 0.0237.
For “TNPO1_Q92973_205_SHAVACVNQFIISR (UniProt Q92973)” the same measures were 0.172 and 0.0841.
For the target “TOP2B_Q02880_237_HFDGEDYTCITFQPDLSK (UniProt Q02880)”, the “probe-labelled cysteine peptide fold change” value runs as follows: (10 µM) 0.0628; (50 µM) 0.0886.
Taken in the same sequence, the figures for “TOP2A_P11388_997+1008_LQTSLTCNSMVLFDHVGCLK (UniProt P11388)” were -0.0908 and 0.219.
“TNPO1_Q92973_862_DDLRDMFCK (UniProt Q92973)”: the “probe-labelled cysteine peptide fold change” value runs as follows: (10 µM) -0.311; (50 µM) -0.192.
Regarding “TONSL_Q96HA7_1248_EGCALAHLTLSANHLGDK (UniProt Q96HA7)”, the “probe-labelled cysteine peptide fold change” value was 0.0642 (10 µM) and -0.312 (50 µM).
For the target “TM9SF2_Q99805_56_KSDECK (UniProt Q99805)”, the “probe-labelled cysteine peptide fold change” value reads like this: (10 µM) -0.278; (50 µM) -0.242.
For the target “TM9SF1_O15321_68_VGPYHNPQETYHYYQLPVCCPEK (UniProt O15321)”, the “probe-labelled cysteine peptide fold change” value by setting is: (10 µM) 0.0133; (50 µM) -0.146.
On to “TOP2B_Q02880_93_KTQLEHILLRPDTYIGSVEPLTQFMWVYDEDVGMNCR (UniProt Q02880)”, for which the “probe-labelled cysteine peptide fold change” value (10 µM) amounted to 0.225 and the “probe-labelled cysteine peptide fold change” value (50 µM) was -0.000288.
Regarding “TNFAIP2_Q03169_356_LDGHCHSELAIDIIQITSQAQAK (UniProt Q03169)”, the “probe-labelled cysteine peptide fold change” value was -0.0614 (10 µM) and -0.0762 (50 µM).
As for “TM9SF3_Q9HD45_66_YFSLPFCVGSK (UniProt Q9HD45)”, the “probe-labelled cysteine peptide fold change” value (10 µM) was -0.139 and the “probe-labelled cysteine peptide fold change” value (50 µM) is -0.138.
“TLR2_O60603_585_LSVSECHR (UniProt O60603)”: the “probe-labelled cysteine peptide fold change” value (10 µM) is -0.146 and the “probe-labelled cysteine peptide fold change” value (50 µM) is -0.0389.
In the case of “TNPO1_Q92973_153_LCSLLDSEDYNTCEGAFGALQK (UniProt Q92973)”, the “probe-labelled cysteine peptide fold change” value reads like this: (10 µM) -0.308; (50 µM) -0.15.
With “TONSL_Q96HA7_1345_RLCAEDR (UniProt Q96HA7)”, the “probe-labelled cysteine peptide fold change” value (10 µM) is -0.014 and the “probe-labelled cysteine peptide fold change” value (50 µM) is -0.108.
Regarding “TOMM40_O96008_354_FQCGFGLTIG (UniProt O96008)”, the “probe-labelled cysteine peptide fold change” value is, setting by setting: (10 µM) -0.0217; (50 µM) 0.0609.
Taken in the same sequence, the figures for “TOP1_P11387_341_EYGFCIMDNHK (UniProt P11387)” were -0.205 and -0.0292.
Take “TOPBP1_Q92547_1099_SGCNSASSTPDSTR (UniProt Q92547)”: the “probe-labelled cysteine peptide fold change” value runs as follows: (10 µM) -0.265; (50 µM) -0.372.
Regarding “TOP1_P11387_505_AGNEKEEGETADTVGCCSLR (UniProt P11387)”, the “probe-labelled cysteine peptide fold change” value was -0.0231 (10 µM) and -0.756 (50 µM).

These data come from the supplement of paper PMC12067093, “Discovery and optimisation of a covalent ligand for TRIM25 and its application to targeted protein ubiquitination” (Chemical Science, 2025).
